This passage reports binding results from paper PMC5412559.

Results are given in words; binding and its absence hold for the method and conditions named. In cells and extracts the contact can be indirect. Some entries that bind do so weakly or less than the wild type. Tags and fused reporters may be left off the sequences shown.

The assay concerns the target T1, dSarm-3×Flag (Drosophila melanogaster) (UniProt Q6IDD9).
T1 sequence: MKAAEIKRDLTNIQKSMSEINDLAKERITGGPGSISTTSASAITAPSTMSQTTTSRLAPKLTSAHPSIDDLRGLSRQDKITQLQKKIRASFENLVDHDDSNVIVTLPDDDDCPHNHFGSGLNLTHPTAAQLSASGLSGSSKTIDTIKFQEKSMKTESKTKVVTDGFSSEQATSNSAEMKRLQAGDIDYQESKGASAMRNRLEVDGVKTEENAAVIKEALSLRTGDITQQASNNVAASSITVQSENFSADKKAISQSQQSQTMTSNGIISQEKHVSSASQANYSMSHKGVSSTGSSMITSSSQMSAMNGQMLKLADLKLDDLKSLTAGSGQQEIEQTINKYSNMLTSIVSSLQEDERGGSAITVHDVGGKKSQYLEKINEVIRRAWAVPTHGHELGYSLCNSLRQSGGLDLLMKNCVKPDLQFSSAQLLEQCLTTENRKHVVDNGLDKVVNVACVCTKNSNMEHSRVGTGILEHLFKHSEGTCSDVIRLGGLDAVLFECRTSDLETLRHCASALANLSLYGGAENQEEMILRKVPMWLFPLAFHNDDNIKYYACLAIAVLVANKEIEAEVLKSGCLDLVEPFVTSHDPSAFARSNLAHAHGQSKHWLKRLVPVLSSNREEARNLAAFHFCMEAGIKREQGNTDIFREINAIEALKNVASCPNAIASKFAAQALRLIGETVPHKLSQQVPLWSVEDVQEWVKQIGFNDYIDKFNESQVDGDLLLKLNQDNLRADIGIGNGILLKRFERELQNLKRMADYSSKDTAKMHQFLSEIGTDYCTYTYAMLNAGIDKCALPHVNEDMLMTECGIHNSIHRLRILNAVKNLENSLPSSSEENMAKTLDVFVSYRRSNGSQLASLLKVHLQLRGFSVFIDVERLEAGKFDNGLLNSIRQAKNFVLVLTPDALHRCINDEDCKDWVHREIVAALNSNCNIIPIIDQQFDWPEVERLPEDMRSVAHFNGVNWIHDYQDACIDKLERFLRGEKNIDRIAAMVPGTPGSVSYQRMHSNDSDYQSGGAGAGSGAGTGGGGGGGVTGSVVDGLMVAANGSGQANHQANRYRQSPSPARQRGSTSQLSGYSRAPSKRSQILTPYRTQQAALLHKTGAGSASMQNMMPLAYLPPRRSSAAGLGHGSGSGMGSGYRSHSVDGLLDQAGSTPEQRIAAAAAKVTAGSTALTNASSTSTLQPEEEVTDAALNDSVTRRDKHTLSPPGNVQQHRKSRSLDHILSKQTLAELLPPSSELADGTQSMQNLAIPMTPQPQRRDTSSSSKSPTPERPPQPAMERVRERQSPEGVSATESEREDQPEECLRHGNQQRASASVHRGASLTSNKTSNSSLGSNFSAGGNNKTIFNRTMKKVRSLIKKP
Description: co-IP; S2 cells cotransfected, collected 48 h after transfection, lysed in NP-40 buffer or Flag affinity chromatography buffer; the Flag-tagged protein precipitated with anti-Flag antibody-conjugated agarose or magnetic beads; Western blot. On the technique in general: In western blotting, separated proteins are transferred to a membrane and probed.

B1: Wek-3×HA (protein, UniProt Q9VJN5 1-470)
chain: MGVPTSDWIYWCRLCARDDVVYKVRERDDDLVRIISKCFDVEMTLEEPELGSMLCEECYSVIGQLITFSDSVSKVQAIFELLRHSEPQDSQDLDALRLEYGLPPACKQDLEFLDIDDTEDRCSLVEELTISDHSTSPSPDFEAQTVRTRANLKQCNSDPKVLASPTASIPEVETKRSRRQQFAAKRNSKVYTATESDDEEAILDEDEAVSPPPLKRKRGRPKGSGKQKNVDDSDNVTSREPDDNAKSKQDDKTSELSMSPHGSQSSNFVDYPCKICNETFMSFMALRRHKHDMHGGPKKYVCDHCGKGLKTFTSLVEHQLVHTEEKPCICPVCNAGFKNKARLRVHSQTHGEPKFECNVCGKKLQTRAILNKHKYVHTDERRFKCEVCGSGCKNSTALKIHLLGHTGLRPYVCKYCGKAFASNTNCRSHKWKKHPELASKEDETESSRVPVPTLEELRAITREMAKAKQD
As to B1, the binding entry is given as “binds”.
